# The list shows a part of the results. Single values of this set are uncertain.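 Tm was set to 64 °C where no melting was found, and many curves are irregular.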
# Protein sequences, listed by entry. Tags and fused reporters are not part of them. Lines headed by an entry give the natural chain unless they say otherwise; changes in a name come on top.
# UniProt Q96HC4: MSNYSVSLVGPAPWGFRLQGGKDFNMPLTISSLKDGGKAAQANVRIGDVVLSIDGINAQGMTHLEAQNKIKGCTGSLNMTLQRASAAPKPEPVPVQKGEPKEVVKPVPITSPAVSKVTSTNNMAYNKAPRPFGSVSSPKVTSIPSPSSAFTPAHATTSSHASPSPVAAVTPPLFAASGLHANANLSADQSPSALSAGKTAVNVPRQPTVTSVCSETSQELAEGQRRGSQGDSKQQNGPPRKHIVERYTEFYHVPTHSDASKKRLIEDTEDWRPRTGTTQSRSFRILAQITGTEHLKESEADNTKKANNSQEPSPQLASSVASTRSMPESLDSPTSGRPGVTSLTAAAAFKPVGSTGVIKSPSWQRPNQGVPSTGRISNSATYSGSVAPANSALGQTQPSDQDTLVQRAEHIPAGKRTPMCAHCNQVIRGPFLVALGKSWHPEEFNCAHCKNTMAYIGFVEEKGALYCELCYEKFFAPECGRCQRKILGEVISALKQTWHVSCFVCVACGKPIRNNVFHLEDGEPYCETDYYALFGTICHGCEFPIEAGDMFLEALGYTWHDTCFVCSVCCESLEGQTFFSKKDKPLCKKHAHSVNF
# UniProt Q96J01: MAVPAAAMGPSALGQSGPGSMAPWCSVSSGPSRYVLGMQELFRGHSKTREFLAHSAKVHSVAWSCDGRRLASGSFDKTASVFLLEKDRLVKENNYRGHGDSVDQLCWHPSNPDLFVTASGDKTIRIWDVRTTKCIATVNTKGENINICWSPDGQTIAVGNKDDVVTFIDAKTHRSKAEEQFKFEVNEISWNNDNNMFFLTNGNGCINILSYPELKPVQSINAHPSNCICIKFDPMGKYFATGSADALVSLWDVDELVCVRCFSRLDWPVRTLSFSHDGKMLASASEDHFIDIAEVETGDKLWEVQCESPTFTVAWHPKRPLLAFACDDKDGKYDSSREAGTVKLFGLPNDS
# UniProt Q96N67: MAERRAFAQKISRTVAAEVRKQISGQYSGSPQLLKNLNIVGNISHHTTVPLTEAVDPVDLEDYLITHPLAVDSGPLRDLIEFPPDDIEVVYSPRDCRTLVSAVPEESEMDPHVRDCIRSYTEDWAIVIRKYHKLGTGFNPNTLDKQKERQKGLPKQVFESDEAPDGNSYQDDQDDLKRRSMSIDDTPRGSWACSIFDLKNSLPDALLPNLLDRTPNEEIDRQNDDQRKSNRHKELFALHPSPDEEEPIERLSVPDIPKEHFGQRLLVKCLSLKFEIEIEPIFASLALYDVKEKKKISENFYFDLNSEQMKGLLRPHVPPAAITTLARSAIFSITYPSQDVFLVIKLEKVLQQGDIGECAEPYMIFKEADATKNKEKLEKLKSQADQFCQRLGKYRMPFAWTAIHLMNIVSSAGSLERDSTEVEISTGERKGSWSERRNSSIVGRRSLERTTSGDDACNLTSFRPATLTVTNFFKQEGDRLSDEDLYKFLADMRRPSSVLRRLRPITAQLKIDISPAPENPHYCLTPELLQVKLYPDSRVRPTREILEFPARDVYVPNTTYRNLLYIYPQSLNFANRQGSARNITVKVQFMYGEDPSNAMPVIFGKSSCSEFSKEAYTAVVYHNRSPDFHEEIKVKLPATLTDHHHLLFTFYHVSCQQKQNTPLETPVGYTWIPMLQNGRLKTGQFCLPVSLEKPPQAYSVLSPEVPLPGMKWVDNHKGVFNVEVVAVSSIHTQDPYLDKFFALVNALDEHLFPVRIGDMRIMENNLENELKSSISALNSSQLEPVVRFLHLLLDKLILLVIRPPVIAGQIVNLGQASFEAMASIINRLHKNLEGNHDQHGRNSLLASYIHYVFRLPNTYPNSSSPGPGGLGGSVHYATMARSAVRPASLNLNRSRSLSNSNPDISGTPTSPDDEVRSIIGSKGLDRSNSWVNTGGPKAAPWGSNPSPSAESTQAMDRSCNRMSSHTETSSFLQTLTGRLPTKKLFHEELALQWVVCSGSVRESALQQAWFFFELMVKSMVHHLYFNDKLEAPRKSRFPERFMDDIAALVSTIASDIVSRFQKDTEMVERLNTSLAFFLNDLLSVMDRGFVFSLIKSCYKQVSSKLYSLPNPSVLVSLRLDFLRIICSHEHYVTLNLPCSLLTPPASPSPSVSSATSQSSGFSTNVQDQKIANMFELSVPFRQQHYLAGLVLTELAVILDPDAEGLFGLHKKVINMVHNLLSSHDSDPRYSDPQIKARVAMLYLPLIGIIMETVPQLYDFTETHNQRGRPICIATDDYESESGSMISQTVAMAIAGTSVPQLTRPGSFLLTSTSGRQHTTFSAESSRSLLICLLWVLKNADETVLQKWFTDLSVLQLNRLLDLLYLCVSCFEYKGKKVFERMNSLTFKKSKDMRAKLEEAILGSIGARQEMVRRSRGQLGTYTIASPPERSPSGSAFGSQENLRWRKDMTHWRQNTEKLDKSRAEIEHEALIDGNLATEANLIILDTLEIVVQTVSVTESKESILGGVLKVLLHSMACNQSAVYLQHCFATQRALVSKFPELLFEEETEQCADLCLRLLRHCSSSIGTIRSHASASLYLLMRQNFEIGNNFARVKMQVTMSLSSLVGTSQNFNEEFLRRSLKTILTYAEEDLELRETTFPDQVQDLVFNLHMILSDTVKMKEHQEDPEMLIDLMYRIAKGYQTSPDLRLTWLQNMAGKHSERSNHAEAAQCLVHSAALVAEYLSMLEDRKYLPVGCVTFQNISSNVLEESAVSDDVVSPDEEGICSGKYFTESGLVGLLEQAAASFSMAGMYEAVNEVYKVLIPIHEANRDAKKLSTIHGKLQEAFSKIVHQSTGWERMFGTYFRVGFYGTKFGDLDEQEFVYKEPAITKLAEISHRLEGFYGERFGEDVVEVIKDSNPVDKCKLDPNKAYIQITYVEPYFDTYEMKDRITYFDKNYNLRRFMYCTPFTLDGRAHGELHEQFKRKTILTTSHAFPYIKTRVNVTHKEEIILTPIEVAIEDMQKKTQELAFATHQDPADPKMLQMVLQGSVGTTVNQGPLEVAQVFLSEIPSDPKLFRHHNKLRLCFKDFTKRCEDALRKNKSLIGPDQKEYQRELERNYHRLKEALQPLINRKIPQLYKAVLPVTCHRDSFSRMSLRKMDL
# UniProt Q96GE9: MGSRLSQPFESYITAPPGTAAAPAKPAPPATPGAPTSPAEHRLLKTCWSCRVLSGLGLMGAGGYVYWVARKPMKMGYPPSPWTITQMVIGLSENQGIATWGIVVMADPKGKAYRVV
# UniProt Q96ER9: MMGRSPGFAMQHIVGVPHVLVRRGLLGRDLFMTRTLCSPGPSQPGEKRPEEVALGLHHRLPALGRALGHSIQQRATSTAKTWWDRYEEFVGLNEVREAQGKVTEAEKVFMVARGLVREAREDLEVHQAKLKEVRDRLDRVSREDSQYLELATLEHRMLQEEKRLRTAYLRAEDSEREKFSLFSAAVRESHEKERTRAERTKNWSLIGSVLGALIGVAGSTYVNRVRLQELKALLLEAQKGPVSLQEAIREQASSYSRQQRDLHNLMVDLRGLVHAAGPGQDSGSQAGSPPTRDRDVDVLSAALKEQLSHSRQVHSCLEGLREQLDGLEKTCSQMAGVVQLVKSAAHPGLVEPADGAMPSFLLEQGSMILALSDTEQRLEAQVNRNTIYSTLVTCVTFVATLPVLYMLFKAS
# UniProt Q96LZ7: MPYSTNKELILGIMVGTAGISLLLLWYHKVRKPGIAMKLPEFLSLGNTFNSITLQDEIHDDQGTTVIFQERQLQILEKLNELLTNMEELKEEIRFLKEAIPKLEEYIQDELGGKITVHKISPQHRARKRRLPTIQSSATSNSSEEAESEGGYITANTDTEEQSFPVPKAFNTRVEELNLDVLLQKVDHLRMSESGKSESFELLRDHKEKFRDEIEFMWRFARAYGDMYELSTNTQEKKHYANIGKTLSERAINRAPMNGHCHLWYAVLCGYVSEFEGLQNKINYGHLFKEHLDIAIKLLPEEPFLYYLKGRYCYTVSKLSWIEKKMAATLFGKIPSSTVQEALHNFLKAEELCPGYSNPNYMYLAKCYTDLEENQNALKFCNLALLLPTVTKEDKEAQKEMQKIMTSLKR
# UniProt Q96HE7: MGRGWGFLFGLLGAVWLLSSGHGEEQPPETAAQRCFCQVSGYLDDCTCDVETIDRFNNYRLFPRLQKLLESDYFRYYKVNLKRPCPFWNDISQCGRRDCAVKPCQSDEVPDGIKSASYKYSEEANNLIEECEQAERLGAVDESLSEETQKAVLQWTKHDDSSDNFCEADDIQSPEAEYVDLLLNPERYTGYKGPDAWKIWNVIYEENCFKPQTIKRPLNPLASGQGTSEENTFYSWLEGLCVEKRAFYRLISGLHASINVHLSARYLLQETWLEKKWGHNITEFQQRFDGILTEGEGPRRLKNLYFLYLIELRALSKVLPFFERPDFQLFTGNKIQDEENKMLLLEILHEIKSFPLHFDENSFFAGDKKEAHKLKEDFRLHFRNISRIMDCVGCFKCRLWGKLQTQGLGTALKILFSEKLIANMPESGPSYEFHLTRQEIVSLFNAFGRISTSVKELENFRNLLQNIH
# UniProt Q96IK1: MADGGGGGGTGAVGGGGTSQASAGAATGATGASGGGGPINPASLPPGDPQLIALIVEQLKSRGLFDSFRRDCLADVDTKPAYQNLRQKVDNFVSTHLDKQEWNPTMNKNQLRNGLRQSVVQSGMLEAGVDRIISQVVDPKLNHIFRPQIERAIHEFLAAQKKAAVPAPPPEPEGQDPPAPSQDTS
# UniProt Q96S82: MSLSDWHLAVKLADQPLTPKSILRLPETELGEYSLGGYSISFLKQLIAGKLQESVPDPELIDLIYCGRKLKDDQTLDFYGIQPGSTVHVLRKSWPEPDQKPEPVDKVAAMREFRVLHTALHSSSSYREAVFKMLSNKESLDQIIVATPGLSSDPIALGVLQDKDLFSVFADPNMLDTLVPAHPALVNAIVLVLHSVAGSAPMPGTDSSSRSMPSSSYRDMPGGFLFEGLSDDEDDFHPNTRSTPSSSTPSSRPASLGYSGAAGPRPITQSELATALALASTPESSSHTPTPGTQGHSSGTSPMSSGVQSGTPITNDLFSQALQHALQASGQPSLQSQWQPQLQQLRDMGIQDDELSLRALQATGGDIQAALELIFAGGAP
# UniProt Q96PU5: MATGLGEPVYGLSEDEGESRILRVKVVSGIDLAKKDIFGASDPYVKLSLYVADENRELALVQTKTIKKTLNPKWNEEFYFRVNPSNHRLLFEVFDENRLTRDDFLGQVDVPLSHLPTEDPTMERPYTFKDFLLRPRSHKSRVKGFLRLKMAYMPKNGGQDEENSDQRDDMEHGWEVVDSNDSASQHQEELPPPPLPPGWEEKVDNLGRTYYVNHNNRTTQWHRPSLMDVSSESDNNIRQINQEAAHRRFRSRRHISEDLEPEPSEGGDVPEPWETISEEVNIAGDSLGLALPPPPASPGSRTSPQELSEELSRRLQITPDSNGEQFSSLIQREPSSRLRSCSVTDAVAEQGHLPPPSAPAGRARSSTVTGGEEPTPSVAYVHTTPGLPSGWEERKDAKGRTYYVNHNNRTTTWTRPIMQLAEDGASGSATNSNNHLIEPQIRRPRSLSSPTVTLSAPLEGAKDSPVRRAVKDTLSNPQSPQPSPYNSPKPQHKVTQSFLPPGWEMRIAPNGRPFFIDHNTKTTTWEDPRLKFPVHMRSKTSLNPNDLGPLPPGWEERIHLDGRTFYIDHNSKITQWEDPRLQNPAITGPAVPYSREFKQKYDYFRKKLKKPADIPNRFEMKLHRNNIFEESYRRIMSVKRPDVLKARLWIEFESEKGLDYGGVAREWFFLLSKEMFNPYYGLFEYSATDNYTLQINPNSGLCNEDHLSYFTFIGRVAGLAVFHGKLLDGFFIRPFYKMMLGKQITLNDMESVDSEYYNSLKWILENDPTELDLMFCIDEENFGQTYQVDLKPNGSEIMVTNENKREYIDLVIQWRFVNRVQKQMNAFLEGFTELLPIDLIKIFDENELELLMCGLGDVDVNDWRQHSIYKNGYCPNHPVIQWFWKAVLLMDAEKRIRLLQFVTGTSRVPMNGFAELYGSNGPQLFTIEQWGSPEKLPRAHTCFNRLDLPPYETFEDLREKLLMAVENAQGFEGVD
# UniProt Q96NY9: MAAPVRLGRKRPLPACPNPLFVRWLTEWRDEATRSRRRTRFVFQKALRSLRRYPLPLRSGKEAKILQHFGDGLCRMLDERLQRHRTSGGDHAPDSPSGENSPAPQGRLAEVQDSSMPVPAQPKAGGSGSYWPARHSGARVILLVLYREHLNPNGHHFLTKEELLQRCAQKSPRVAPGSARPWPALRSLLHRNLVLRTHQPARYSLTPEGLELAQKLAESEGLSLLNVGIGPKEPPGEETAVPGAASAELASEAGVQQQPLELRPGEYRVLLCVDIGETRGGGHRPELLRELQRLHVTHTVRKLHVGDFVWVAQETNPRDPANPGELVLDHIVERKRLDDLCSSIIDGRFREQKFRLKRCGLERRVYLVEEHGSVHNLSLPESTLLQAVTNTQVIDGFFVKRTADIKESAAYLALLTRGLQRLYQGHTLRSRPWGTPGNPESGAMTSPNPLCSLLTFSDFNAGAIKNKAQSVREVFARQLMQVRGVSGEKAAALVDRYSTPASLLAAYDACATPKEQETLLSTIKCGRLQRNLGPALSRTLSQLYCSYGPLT
# Compound: CCc1cnccc1C(=O)Nc1cc2c(cc1F)NC(=O)CC2
# Test: melting temperature shift (DMSO Tm minus MBE1-treated Tm) in cellular thermal proteome profiling; higher = less thermal stabilization by MBE1 (negative = stabilized by MBE1)
# Settings: A375
target,measurement,setting,value
SGF29 (UniProt Q96ES7),melting temperature shift,MBE1 concentration: 100 nM,0.0122 °C
same,melting temperature shift,MBE1 concentration: 1 uM,0.72 °C
UIMC1 (UniProt Q96RL1),melting temperature shift,MBE1 concentration: 100 nM,-1.26 °C
same,melting temperature shift,MBE1 concentration: 1 uM,1.47 °C
TUBGCP6 (UniProt Q96RT7),melting temperature shift,MBE1 concentration: 100 nM,1.53 °C
same,melting temperature shift,MBE1 concentration: 1 uM,-0.678 °C
APIP (UniProt Q96GX9),melting temperature shift,MBE1 concentration: 100 nM,-1.83 °C
same,melting temperature shift,MBE1 concentration: 1 uM,-0.673 °C
NSMCE3 (UniProt Q96MG7),melting temperature shift,MBE1 concentration: 100 nM,0.336 °C
same,melting temperature shift,MBE1 concentration: 1 uM,0.543 °C
UniProt Q96PM9,melting temperature shift,MBE1 concentration: 100 nM,0.287 °C
same,melting temperature shift,MBE1 concentration: 1 uM,0.409 °C
THOC1 (UniProt Q96FV9),melting temperature shift,MBE1 concentration: 100 nM,-0.438 °C
same,melting temperature shift,MBE1 concentration: 1 uM,-0.748 °C
UniProt Q96N11,melting temperature shift,MBE1 concentration: 100 nM,0.0939 °C
same,melting temperature shift,MBE1 concentration: 1 uM,-3.3 °C
NEURL4 (UniProt Q96JN8),melting temperature shift,MBE1 concentration: 100 nM,0.36 °C
same,melting temperature shift,MBE1 concentration: 1 uM,0.368 °C
PDLIM5 (UniProt Q96HC4),melting temperature shift,MBE1 concentration: 100 nM,-0.548 °C
same,melting temperature shift,MBE1 concentration: 1 uM,0.287 °C
USP47 (UniProt Q96K76),melting temperature shift,MBE1 concentration: 100 nM,-0.654 °C
same,melting temperature shift,MBE1 concentration: 1 uM,-0.833 °C
PEO1 (UniProt Q96RR1),melting temperature shift,MBE1 concentration: 100 nM,0.311 °C
same,melting temperature shift,MBE1 concentration: 1 uM,-0.0916 °C
WDFY2 (UniProt Q96P53),melting temperature shift,MBE1 concentration: 100 nM,-2.3 °C
same,melting temperature shift,MBE1 concentration: 1 uM,-3.55 °C
LYSMD1 (UniProt Q96S90),melting temperature shift,MBE1 concentration: 100 nM,-1.43 °C
same,melting temperature shift,MBE1 concentration: 1 uM,0.0611 °C
AGAP3 (UniProt Q96P47),melting temperature shift,MBE1 concentration: 100 nM,-0.668 °C
same,melting temperature shift,MBE1 concentration: 1 uM,-0.913 °C
XPO6 (UniProt Q96QU8),melting temperature shift,MBE1 concentration: 100 nM,-0.136 °C
same,melting temperature shift,MBE1 concentration: 1 uM,0.306 °C
PRRC1 (UniProt Q96M27),melting temperature shift,MBE1 concentration: 100 nM,-3.13 °C
same,melting temperature shift,MBE1 concentration: 1 uM,-2.92 °C
UniProt Q96JN0,melting temperature shift,MBE1 concentration: 100 nM,-3.59 °C
same,melting temperature shift,MBE1 concentration: 1 uM,-2.79 °C
UniProt Q96FL9,melting temperature shift,MBE1 concentration: 100 nM,0.0488 °C
same,melting temperature shift,MBE1 concentration: 1 uM,-0.524 °C
STRBP (UniProt Q96SI9),melting temperature shift,MBE1 concentration: 100 nM,-0.635 °C
same,melting temperature shift,MBE1 concentration: 1 uM,-0.159 °C
THOC3 (UniProt Q96J01),melting temperature shift,MBE1 concentration: 100 nM,0.995 °C
same,melting temperature shift,MBE1 concentration: 1 uM,-0.788 °C
MED8 (UniProt Q96G25),melting temperature shift,MBE1 concentration: 100 nM,0.275 °C
same,melting temperature shift,MBE1 concentration: 1 uM,-0.311 °C
DOCK7 (UniProt Q96N67),melting temperature shift,MBE1 concentration: 100 nM,-0.565 °C
same,melting temperature shift,MBE1 concentration: 1 uM,-0.205 °C
WDR89 (UniProt Q96FK6),melting temperature shift,MBE1 concentration: 100 nM,-1.61 °C
same,melting temperature shift,MBE1 concentration: 1 uM,0.0738 °C
HPDL (UniProt Q96IR7),melting temperature shift,MBE1 concentration: 100 nM,-1.56 °C
same,melting temperature shift,MBE1 concentration: 1 uM,-0.309 °C
LTV1 (UniProt Q96GA3),melting temperature shift,MBE1 concentration: 100 nM,0.904 °C
same,melting temperature shift,MBE1 concentration: 1 uM,0.556 °C
AJUBA (UniProt Q96IF1),melting temperature shift,MBE1 concentration: 100 nM,-0.983 °C
same,melting temperature shift,MBE1 concentration: 1 uM,-0.688 °C
FMNL2 (UniProt Q96PY5),melting temperature shift,MBE1 concentration: 100 nM,1.62 °C
same,melting temperature shift,MBE1 concentration: 1 uM,0.775 °C
NEK1 (UniProt Q96PY6),melting temperature shift,MBE1 concentration: 100 nM,-0.556 °C
same,melting temperature shift,MBE1 concentration: 1 uM,-0.763 °C
UniProt Q96GE9,melting temperature shift,MBE1 concentration: 100 nM,5.89 °C
same,melting temperature shift,MBE1 concentration: 1 uM,6.79 °C
CHMP6 (UniProt Q96FZ7),melting temperature shift,MBE1 concentration: 100 nM,-0.498 °C
same,melting temperature shift,MBE1 concentration: 1 uM,-0.711 °C
CCDC51 (UniProt Q96ER9),melting temperature shift,MBE1 concentration: 100 nM,-0.423 °C
same,melting temperature shift,MBE1 concentration: 1 uM,-0.161 °C
UniProt Q96EZ8,melting temperature shift,MBE1 concentration: 100 nM,-8.54 °C
same,melting temperature shift,MBE1 concentration: 1 uM,-0.282 °C
ZNF830 (UniProt Q96NB3),melting temperature shift,MBE1 concentration: 100 nM,-1.16 °C
same,melting temperature shift,MBE1 concentration: 1 uM,-3.29 °C
UniProt Q96J92,melting temperature shift,MBE1 concentration: 100 nM,0.055 °C
same,melting temperature shift,MBE1 concentration: 1 uM,0.495 °C
ARAP1 (UniProt Q96P48),melting temperature shift,MBE1 concentration: 100 nM,-0.76 °C
same,melting temperature shift,MBE1 concentration: 1 uM,-0.08 °C
GFM1 (UniProt Q96RP9),melting temperature shift,MBE1 concentration: 100 nM,0.574 °C
same,melting temperature shift,MBE1 concentration: 1 uM,0.299 °C
MRPL53 (UniProt Q96EL3),melting temperature shift,MBE1 concentration: 100 nM,-1.38 °C
same,melting temperature shift,MBE1 concentration: 1 uM,4.11 °C
PFDN5 (UniProt Q99471),melting temperature shift,MBE1 concentration: 100 nM,-0.961 °C
same,melting temperature shift,MBE1 concentration: 1 uM,-1.63 °C
FAM129B (UniProt Q96TA1),melting temperature shift,MBE1 concentration: 100 nM,-0.496 °C
same,melting temperature shift,MBE1 concentration: 1 uM,0.244 °C
MMAB (UniProt Q96EY8),melting temperature shift,MBE1 concentration: 100 nM,-0.604 °C
same,melting temperature shift,MBE1 concentration: 1 uM,0.531 °C
SAAL1 (UniProt Q96ER3),melting temperature shift,MBE1 concentration: 100 nM,1.73 °C
same,melting temperature shift,MBE1 concentration: 1 uM,0.446 °C
PUS7 (UniProt Q96PZ0),melting temperature shift,MBE1 concentration: 100 nM,-0.698 °C
same,melting temperature shift,MBE1 concentration: 1 uM,-0.424 °C
UniProt Q96JI7,melting temperature shift,MBE1 concentration: 100 nM,3.33 °C
same,melting temperature shift,MBE1 concentration: 1 uM,2.96 °C
TMX3 (UniProt Q96JJ7),melting temperature shift,MBE1 concentration: 100 nM,-0.778 °C
same,melting temperature shift,MBE1 concentration: 1 uM,0.677 °C
CCDC115 (UniProt Q96NT0),melting temperature shift,MBE1 concentration: 100 nM,-1.39 °C
same,melting temperature shift,MBE1 concentration: 1 uM,0.643 °C
UniProt Q96HR3,melting temperature shift,MBE1 concentration: 100 nM,0.83 °C
same,melting temperature shift,MBE1 concentration: 1 uM,0.525 °C
UniProt Q96LZ7,melting temperature shift,MBE1 concentration: 100 nM,0.733 °C
same,melting temperature shift,MBE1 concentration: 1 uM,-0.0672 °C
MBOAT7 (UniProt Q96N66),melting temperature shift,MBE1 concentration: 100 nM,-0.532 °C
same,melting temperature shift,MBE1 concentration: 1 uM,0.611 °C
UniProt Q96NE9,melting temperature shift,MBE1 concentration: 100 nM,0.0488 °C
same,melting temperature shift,MBE1 concentration: 1 uM,-0.342 °C
ERO1A (UniProt Q96HE7),melting temperature shift,MBE1 concentration: 100 nM,-0.738 °C
same,melting temperature shift,MBE1 concentration: 1 uM,-0.208 °C
DHRS1 (UniProt Q96LJ7),melting temperature shift,MBE1 concentration: 100 nM,0.458 °C
same,melting temperature shift,MBE1 concentration: 1 uM,1.17 °C
ZFP91 (UniProt Q96JP5),melting temperature shift,MBE1 concentration: 100 nM,-0.409 °C
same,melting temperature shift,MBE1 concentration: 1 uM,1.06 °C
UniProt Q96RT6,melting temperature shift,MBE1 concentration: 100 nM,0.391 °C
same,melting temperature shift,MBE1 concentration: 1 uM,-0.721 °C
SGTB (UniProt Q96EQ0),melting temperature shift,MBE1 concentration: 100 nM,0.0469 °C
same,melting temperature shift,MBE1 concentration: 1 uM,-0.0716 °C
TUBGCP5 (UniProt Q96RT8),melting temperature shift,MBE1 concentration: 100 nM,-0.366 °C
same,melting temperature shift,MBE1 concentration: 1 uM,-0.885 °C
UniProt Q99417,melting temperature shift,MBE1 concentration: 100 nM,0.299 °C
same,melting temperature shift,MBE1 concentration: 1 uM,-2.36 °C
DDRGK1 (UniProt Q96HY6),melting temperature shift,MBE1 concentration: 100 nM,-1.27 °C
same,melting temperature shift,MBE1 concentration: 1 uM,0.843 °C
MTMR9 (UniProt Q96QG7),melting temperature shift,MBE1 concentration: 100 nM,1.06 °C
same,melting temperature shift,MBE1 concentration: 1 uM,0.385 °C
CDK5RAP3 (UniProt Q96JB5),melting temperature shift,MBE1 concentration: 100 nM,1.17 °C
same,melting temperature shift,MBE1 concentration: 1 uM,0.318 °C
ZFYVE19 (UniProt Q96K21),melting temperature shift,MBE1 concentration: 100 nM,-0.659 °C
same,melting temperature shift,MBE1 concentration: 1 uM,0.554 °C
UniProt Q96Q83,melting temperature shift,MBE1 concentration: 100 nM,-0.733 °C
same,melting temperature shift,MBE1 concentration: 1 uM,1.72 °C
UniProt Q96IK1,melting temperature shift,MBE1 concentration: 100 nM,-3.82 °C
same,melting temperature shift,MBE1 concentration: 1 uM,-3.72 °C
RBM33 (UniProt Q96EV2),melting temperature shift,MBE1 concentration: 100 nM,-1.52 °C
same,melting temperature shift,MBE1 concentration: 1 uM,-0.485 °C
UBL7 (UniProt Q96S82),melting temperature shift,MBE1 concentration: 100 nM,0.403 °C
same,melting temperature shift,MBE1 concentration: 1 uM,0.104 °C
NEDD4L (UniProt Q96PU5),melting temperature shift,MBE1 concentration: 100 nM,-0.311 °C
same,melting temperature shift,MBE1 concentration: 1 uM,-0.268 °C
PRMT6 (UniProt Q96LA8),melting temperature shift,MBE1 concentration: 100 nM,0.0488 °C
same,melting temperature shift,MBE1 concentration: 1 uM,-0.0604 °C
UniProt Q96T58,melting temperature shift,MBE1 concentration: 100 nM,-1.36 °C
same,melting temperature shift,MBE1 concentration: 1 uM,-0.468 °C
UniProt Q96NY9,melting temperature shift,MBE1 concentration: 100 nM,-0.243 °C
same,melting temperature shift,MBE1 concentration: 1 uM,0.211 °C
CYFIP2 (UniProt Q96F07),melting temperature shift,MBE1 concentration: 100 nM,0.47 °C
same,melting temperature shift,MBE1 concentration: 1 uM,0.904 °C

# Rewritten with bars between the fields: entries from further up
target | measurement | setting | value
UniProt Q96N11 | melting temperature shift | MBE1 concentration: 1 uM | -3.3 °C
NEURL4 (UniProt Q96JN8) | melting temperature shift | MBE1 concentration: 100 nM | 0.36 °C
same | melting temperature shift | MBE1 concentration: 1 uM | 0.368 °C
PDLIM5 (UniProt Q96HC4) | melting temperature shift | MBE1 concentration: 100 nM | -0.548 °C
same | melting temperature shift | MBE1 concentration: 1 uM | 0.287 °C
USP47 (UniProt Q96K76) | melting temperature shift | MBE1 concentration: 100 nM | -0.654 °C
